Source: patent US12280043B2, “Sustained-release anesthetic compositions and methods of preparation thereof” (TLC Biopharmaceuticals, Inc., priority 2017, dated 2025)
Some of these results come from one statement about several compounds together.

System: guinea pig IC wheal pin-prick model
Experiment: Anesthesia effect using a modified IC wheal pin-prick model
Type: in vivo, guinea pigs
Conditions: IC injection

Structure (SMILES): CCCN1CCCC[C@H]1C(=O)Nc1c(C)cccc1C [Ropivacaine, ropivacaine]
- onset of anesthesia (1.5 mg ropivacaine per IC wheal): ≤ 15 min
- onset of anesthesia (3.0 mg ropivacaine per IC wheal): ≤ 15 min
